Values from PubChem BioAssay AID504786 (Drosophila RNAi Screening Center, 2011).
In all, the deposit lists about 21,000 reagents; shown is an unselected part of those that have a named target and a result. 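Primary screen; positive scores mean lost reporter signal, so the sign may be inverted from the usual convention.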 Names joined by + are all predicted targets of the reagent. Not all columns of the deposit are shown.

Purpose: 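Fly genes required for HIF-dependent transcription when hypoxia is mimicked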 (primary screen)
Cell system: Drosophila S2 cells with a stable HIF luciferase reporter
Reagent: long dsRNA against Drosophila genes, about 0.2 µg dsRNA per well of a 384-well plate
Duration: three days of knock-down, then 20 h of DFO before reading
Challenge: desferrioxamine (DFO) at 100 µM, an iron chelator that mimics hypoxia, for 20 h
Measurement: 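Firefly luciferase driven by the mouse ldh-a hypoxia-response element, measured after 20 h of 100 µM DFO; z-scores per plate, higher means more signal lost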
Reading the numbers: z-score: higher = stronger loss of HIF reporter signal

z-score, replicate 1, by gene and reagent
AOX3: DRSC15955 -0.4
fit: DRSC15280 0.1
Ugt37A2: DRSC15861 -0.2
BTBD9: DRSC18148 -0.3
CG12491 + CG34105: DRSC04008 -0.2; DRSC04124 -0.3
CG6254: DRSC16002 -0.3
Bre1: DRSC09742 0.2
CG11200: DRSC06060 -0.2
CG34160: DRSC01131 -0.1
CG42553: DRSC08356 -0.3
Obp56h: DRSC06433 0.6
ken: DRSC04696 3
Dpp10: DRSC00942 0.1; DRSC02139 -0.2
E(spl)m4-BFM: DRSC16992 -0.4
alpha-Est10: DRSC12613 -0.1
kek1: DRSC03551 -0.3
CG14641: DRSC12227 4.9
CG42709: DRSC10277 -0.3
CG10300: DRSC14225 0
NimC3: DRSC03556 -0.4
Sf3b6: DRSC09972 4.9
CG10631: DRSC02081 -0.4
Lrpprc2: DRSC18605 0
Arr1: DRSC01867 0
Mocs2A + Mocs2B: DRSC13697 0.6; DRSC14219 -0.3
MED8: DRSC06426 -0.1
CG12219: DRSC17829 -0.2
CG14130: DRSC10134 0
CG13801: DRSC08335 -0.2
CG3032: DRSC18266 -0.3
OS9 + Hf: DRSC03392 -0.2
sta: DRSC18838 3.8
CG9426: DRSC03219 -0.3
CG9948: DRSC11104 -0.2
C1GalTA: DRSC03246 -0.2
sc: DRSC18830 -0.4
CG10752: DRSC09799 0
Mmp1: DRSC04493 0
CG12911: DRSC06226 -0.3
Pp2B-14D: DRSC20270 1.9
Cyp6a20: DRSC07380 -0.3
Cpr78E: DRSC11807 -0.3
GEFmeso: DRSC06748 -0.3; DRSC06940 0
Cks85A: DRSC16562 -0.1
CLS: DRSC15642 -0.8
grsm: DRSC14165 -0.2; DRSC14843 -0.2
CG12253: DRSC02153 -0.4

Records listed so far whose target name starts with M or m:
z-score, replicate 1, by gene and reagent
Mocs2A + Mocs2B: DRSC13697 0.6; DRSC14219 -0.3
MED8: DRSC06426 -0.1
Mmp1: DRSC04493 0

Continued.
z-score, replicate 1, by gene and reagent
CG2812: DRSC04319 -0.4
Eglp3: DRSC04293 -0.3
CG8301: DRSC16405 -0.2
Srg3: DRSC08984 -0.1; DRSC10178 -0.1
AstC-R1: DRSC10799 -0.1
CG15498: DRSC15040 -0.1
Inx6: DRSC20579 0.1
Nedd8: DRSC02092 -0.4
Apl: DRSC10350 -0.1
XRCC1: DRSC18729 -0.3
mio: DRSC00692 0.9
tos: DRSC03624 -0.4
aub: DRSC03486 -0.4
CG16743: DRSC02514 0.9
CG13369: DRSC18481 -0.3
CG5618: DRSC11780 -0.2
CG31183: DRSC14403 -0.2; DRSC15554 -0.1
Pbgs: DRSC09718 -0.1
CG9123: DRSC20156 -0.2
CG14356: DRSC14819 0
Sec31: DRSC07131 -0.2
CG31802: DRSC02459 -0.2
CG4293: DRSC18557 -0.3
Obp50c + Obp50b: DRSC05482 -0.2
sotv + CG10731: DRSC05930 -0.2; DRSC05997 -0.3
CG4631: DRSC02766 -0.2
Sirt4: DRSC18290 -0.3
Nost: DRSC18037 -0.3; DRSC18338 -0.3
